Record: PubChem BioAssay AID1671195 (Yale University, 2021)
Assay: 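Knockdowns that increase or decrease uptake of fluorescent LDL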 (primary screen). Cells: human Huh7 hepatoma cells. Knock-down reagent: siRNA pool against human genes, 18 nM. Duration: about 2 to 2.5 days of knockdown, then 8 h LDL uptake. Conditions: DiI-labelled LDL at 30 µg/ml for 8 h, in lipoprotein-deficient serum medium. Measured: 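Per-cell DiI-LDL intensity by automated imaging; well means scaled to the plate median and given as a robust z-score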. Reading the numbers: robust z-score: higher = more LDL uptake after knockdown. Rule for the call: 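Active when two or more replicates show a robust z-score above 2 or below -2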.
Shown is one part, drawn at random, of about 22,000 reagents. About 1,510 of all reagents (6.9%) were called active. 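Active includes knockdowns raising or lowering LDL uptake; positive z-scores mean more uptake, negative mean less.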 No sequences are given here.

After knock-down of ABCA1 [SID442886626], the screen gave robust z-score, replicate 1 = 1.33; robust z-score, replicate 2 = 1.27; robust z-score, replicate 3 = 0.712; inactive. Depletion of GDI1 [SID442889273] gave: robust z-score, replicate 1 = 0.0681; robust z-score, replicate 2 = 1.53; robust z-score, replicate 3 = 0.159; inactive. PARL [SID442883658] scored robust z-score, replicate 1 = 2.43; robust z-score, replicate 2 = 2.33; robust z-score, replicate 3 = 2.73; active. For BTBD3 [SID442893925], the entry reads robust z-score, replicate 1 = 0.0644; robust z-score, replicate 2 = -0.317; robust z-score, replicate 3 = 0.239; inactive. After knock-down of CXCR3 [SID442898713] the results were robust z-score, replicate 1 = -0.735; robust z-score, replicate 2 = -0.755; robust z-score, replicate 3 = -0.0962; inactive. For SUMO1 [SID442893834], the entry reads robust z-score, replicate 1 = 0.261; robust z-score, replicate 2 = 0.11; robust z-score, replicate 3 = -0.355; inactive.

With knock-down of RAB6A [SID442884889], the record shows robust z-score, replicate 1 = 1.24; robust z-score, replicate 2 = 2.75; robust z-score, replicate 3 = 1.42; inactive. C8B [SID442894479] scored robust z-score, replicate 1 = -0.259; robust z-score, replicate 2 = -0.649; robust z-score, replicate 3 = 0.706; inactive. For ZNF761 [SID442903187] the deposit lists robust z-score, replicate 1 = -1.57; robust z-score, replicate 2 = -1.03; robust z-score, replicate 3 = -1.11; inactive. CYBB [SID442898694] showed robust z-score, replicate 1 = -0.619; robust z-score, replicate 2 = 0.0756; robust z-score, replicate 3 = -1.04; inactive. Depletion of BAIAP2L2 [SID442885888] resulted in: robust z-score, replicate 1 = 1.06; robust z-score, replicate 2 = 1.04; robust z-score, replicate 3 = 1.9; inactive. PTGR2 [SID442903058] scored robust z-score, replicate 1 = -1.18; robust z-score, replicate 2 = -1.29; robust z-score, replicate 3 = -1.14; inactive.

For SHISA6 [SID442888857], the entry reads robust z-score, replicate 1 = 0.792; robust z-score, replicate 2 = 0.401; robust z-score, replicate 3 = 0.754; inactive. PLA2G2F [SID442884306] gave robust z-score, replicate 1 = -1.72; robust z-score, replicate 2 = -2.1; robust z-score, replicate 3 = -1.85; active. Silencing of RPL7A [SID442904494] came out at: robust z-score, replicate 1 = -1.91; robust z-score, replicate 2 = -1.21; robust z-score, replicate 3 = -1.88; inactive. With knock-down of UBASH3A [SID442887079], the screen gave robust z-score, replicate 1 = 1.22; robust z-score, replicate 2 = 0.922; robust z-score, replicate 3 = 0.835; inactive.

Entries listed so far marked active:
PARL [SID442883658]: robust z-score, replicate 1 = 2.43; robust z-score, replicate 2 = 2.33; robust z-score, replicate 3 = 2.73; call = active
PLA2G2F [SID442884306]: robust z-score, replicate 1 = -1.72; robust z-score, replicate 2 = -2.1; robust z-score, replicate 3 = -1.85; call = active

More results:
Depletion of KCTD19 [SID442887055] gave: robust z-score, replicate 1 = 0.743; robust z-score, replicate 2 = 0.55; robust z-score, replicate 3 = 1.69; inactive. With knock-down of AKAP4 [SID442899978], the record shows robust z-score, replicate 1 = -1; robust z-score, replicate 2 = -0.201; robust z-score, replicate 3 = -0.878; inactive. For OGFRP1 [SID442896655] the deposit lists robust z-score, replicate 1 = -0.0403; robust z-score, replicate 2 = -0.462; robust z-score, replicate 3 = -0.39; inactive. For WDR86 [SID442891535], the values are robust z-score, replicate 1 = -0.0548; robust z-score, replicate 2 = 0.203; robust z-score, replicate 3 = 0.676; inactive. XAGE3 [SID442895621] showed robust z-score, replicate 1 = -0.464; robust z-score, replicate 2 = -0.078; robust z-score, replicate 3 = -0.0197; inactive. Silencing of NEURL4 [SID442902293] gave: robust z-score, replicate 1 = -1.43; robust z-score, replicate 2 = -1.08; robust z-score, replicate 3 = -0.628; inactive.

For HNRNPA2B1 [SID442892279] the deposit lists robust z-score, replicate 1 = 0.254; robust z-score, replicate 2 = 0.127; robust z-score, replicate 3 = 0.182; inactive. With knock-down of DDX6 [SID442883856], the screen gave robust z-score, replicate 1 = 0.523; robust z-score, replicate 2 = 2.52; robust z-score, replicate 3 = 3.66; active. For PBX2 [SID442894088], the entry reads robust z-score, replicate 1 = -0.237; robust z-score, replicate 2 = 0.126; robust z-score, replicate 3 = 0.0358; inactive. BAG6 [SID442885360] showed robust z-score, replicate 1 = 1.49; robust z-score, replicate 2 = 1.45; robust z-score, replicate 3 = 1.7; inactive. CYP4A22 [SID442890175] showed robust z-score, replicate 1 = 0.307; robust z-score, replicate 2 = 0.328; robust z-score, replicate 3 = 0.724; inactive. After knock-down of ADCYAP1R1 [SID442898051] the results were robust z-score, replicate 1 = -0.389; robust z-score, replicate 2 = -0.359; robust z-score, replicate 3 = -0.622; inactive.

With knock-down of FANCF [SID442883681] the results were robust z-score, replicate 1 = 1.57; robust z-score, replicate 2 = 3.35; robust z-score, replicate 3 = 2.47; active. Depletion of SYT6 [SID442884944] gave: robust z-score, replicate 1 = 1.79; robust z-score, replicate 2 = 1.88; robust z-score, replicate 3 = 1.64; inactive.
